Measurements as given in article doi:10.1101/2022.06.06.494580.
Results are given in words; binding and its absence hold for the method and conditions named. Some results given as binding are weak or reduced against the parent protein; the word gives no strength. Sequences can lack the tags named with a protein.

Target: CNOT7, yeast two-hybrid fusion (human), Q9UIV1
Experiment: two-hybrid
Settings: remark: other sources report otherwise

B1: BTG1, yeast two-hybrid fusion, P62324 1-171 (protein)
chain: MHPFYTRAATMIGEIAAAVSFISKFLRTKGLTSERQLQTFSQSLQELLAEHYKHHWFPEKPCKGSGYRCIRINHKMDPLIGQAAQRIGLSSQELFRLLPSELTLWVDPYEVSYRIGEDGSICVLYEASPAGGSTQNSTNVQMVDSRISCKEELLLGRTSPSKNYNMMTVSG
- binding: binds
